{
  "source": "patent US5889018A",
  "about": "“Heterocyclic compounds, pharmaceutical compositions comprising them and process for the preparation thereof” (Egis Gyogyszergyar RT., priority 1994, dated 1999)",
  "key": {"in vivo": {"assay": "in vivo", "details": "mouse, ip, NMRI mice, 7 days observation", "procedure": "White mice belonging to the NMRI strain (body weight 20 to 25 g. both male and female) were used, 6 animals for each dose. The test compound was administered orally in a volume of 20 ml/kg, the maximum oral and intraperitoneal doses were 1000 mg/kg and 300 mg/kg, respectively. […] The mice were kept under usual laboratory conditions."}, "[1]": {"test_system": "White mice belonging to the NMRI strain", "details": "literary data, 10080 min; cited from earlier work"}},
  "data": [
    {"smiles": "CN1C(=O)CN=C(c2ccccc2)c2cc(Cl)ccc21", "note": "[Diazepam, reference compound]", "values": [
      {"measurement": "LD50 at 168 h", "setting": "in vivo", "result": "> 300", "unit": "mg/kg"},
      {"measurement": "LD50 (mg/kg, p.o.)", "setting": "[1]", "result": 780, "unit": "mg/kg"}
    ]}
  ]
}
